# Values from PubChem BioAssay AID1259425 (University of Nebraska Medical Center, 2018)
# Assay: 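Compare each knockdown with KSR1 silencing using changes in marker transcripts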 (primary screen)
# System: HCT116 human colon cancer cells
# Knock-down reagent: siRNA pool against human genes, 50 nM siRNA
# Measured: 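After 50 nM siRNA pool, branched-DNA assay measures six marker transcripts per well, minus blank, normalised to the geometric mean of two housekeeping transcripts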
# Scale: BNIP3L mRNA: higher = more BNIP3L transcript after knockdown
# In all, the deposit lists about 14,000 reagents; this is an unselected part. Some reagents were tested in more than one well and are listed for each. Further read-outs or replicates are left out here. Not given: the time to read-out.
gene symbol,"BNIP3L mRNA, set 1"
NADK,0.0913
ELP2,0.0865
RANBP2,0.0765
GTF2H3,0.0697
MRPS31,0.112
NEUROD4,0.105
KCNMB3,0.123
RPRD1B,0.0901
CRISP1,0.11
GRIA3,0.0814
CWH43,0.124
HAT1,0.0645
RXFP2,0.106
SLC25A14,0.153
SAMM50,0.144
ABCA10,0.126
KLHL11,0.0834
BIVM,0.0871
BHLHE40,0.18
CNDP1,0.117
STXBP1,0.135

Look-ups from the list:
BHLHE40, BNIP3L mRNA, set 1: 0.18
KLHL11, BNIP3L mRNA, set 1 → 0.0834
RANBP2, BNIP3L mRNA, set 1: 0.0765
Entry of SAMM50 under “BNIP3L mRNA, set 1”: 0.144
NEUROD4, BNIP3L mRNA, set 1: 0.105
HAT1, BNIP3L mRNA, set 1 = 0.0645

The results go on.
gene symbol,"BNIP3L mRNA, set 1"
DECR2,0.178
MAP2K3,0.113
NR4A3,0.115
URM1,0.156
UBE2Z,0.15
SPRR2B,0.138
TIAM2,0.0608
TIAM2,0.0674
DHX34,0.0969
PPP4R3B,0.153
SPEG,0.106
SPEG,0.0949
INTS5,0.201
ZNF667,0.0801
IER2,0.141
GLRX,0.095
SAR1A,0.16
PARPBP,0.112
FBXO11,0.114
DPP10,0.105
SMARCC2,0.0734
NABP2,0.0824
CYP2C19,0.114
DENND1A,0.0558
KLRD1,0.151
RADIL,0.13
SF3A2,0.197
SZRD1,0.0633
ZNF225,0.142
MEIS2,0.0728
SPX,0.119
KLHL26,0.176
CFI,0.105
VGLL4,0.159
FCGR3B,0.035
ERRFI1,0.0934
NKAIN1,0.0879
PAQR8,1.36
HMG20B,0.0714
BRAP,0.0504
RIOK2,0.15
TAS2R16,0.125
